From PubChem BioAssay AID493014 (National Center for Advancing Translational Sciences (NCATS), 2011)
The other results are listed elsewhere or left out. Further columns of the screen follow, without active or inactive calls. Most of these compounds were active or inconclusive in the main read-out, so they are no random draw. Words in brackets tell the shape of the fitted curve; partial curves, single points and poor fits give uncertain potencies.

Assay: qHTS Assay to Find Inhibitors of Chronic Active B-Cell Receptor Signaling
Details: ABC-DLBCL IkBa-CBG/CBR reporter, luminescence ratio (green luciferase fused to IkBa over red control in TMD8 lymphoma cells), 4 h
Method in brief: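 TMD8 human ABC-DLBCL cells with doxycycline-inducible IκBα–green luciferase fusion and unfused red luciferase, in 0.5% FBS medium; compounds up to 46 uM, 4 h at 37C. Green/red luminescence ratio, filter-overlap corrected, fitted to concentration-response curves.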

[1] = measured here: CBR red luminescence, cell number

Compound: O=C(CSc1nc2ccccc2c(=O)[nH]1)Nc1ccc(C(=O)O)cc1
- AC50 [1]: 1.58 µM [falling, full curve]

Compound: COc1cccc(NC(=O)CSC2=Nc3ccccc3C3=NC(CC(=O)NCc4ccccc4OC)C(=O)N23)c1 (stereo not drawn)
- AC50 [1]: 12.6 µM [falling, single point]

Compound: O=c1oc2ccc(Cl)cc2cc1-c1cn2c(n1)sc1ccccc12
- AC50 [1]: 35.5 µM [falling, single point]

Compound: CCOC(=O)N1CCN(S(=O)(=O)N2CCCC(C(=O)NCc3ccc(OC)cc3OC)C2)CC1 (stereo not drawn)
- AC50 [1]: 6.31 µM [rising, partial curve]

Compound: CC(C)(C)C1C/C(=C/c2ccco2)C(=O)/C(=C/c2ccco2)C1 (stereo not drawn)
- AC50 [1]: 6.51 µM [falling, partial curve]

Compound: CN(C)C(=S)Nc1nc2ccccc2s1
- AC50 [1]: 2.24 µM [falling, full curve, poor fit]

Compound: O=C(Cn1nc(Cc2cccnc2)c2ccccc2c1=O)NCC1COc2ccccc2O1 (stereo not drawn)
- AC50 [1]: 0.092 µM [falling, full curve, poor fit]

Compound: O=C(/C=C\Nc1ccc(Br)cc1)c1cccnc1
- AC50 [1]: 16.4 µM [falling, single point]

Compound: CCC(C)N(C(=O)CN1C(=O)NC2(CCc3ccccc32)C1=O)C1CCS(=O)(=O)C1 (stereo not drawn)
- AC50 [1]: 6.51 µM [falling, single point]
- AC50 (measured here: IkBa-CBG green luminescence): 4.11 µM [rising, partial curve, poor fit]

Compound: CC/C(=C/c1ccccc1)c1cccc2[nH]c3c(OC)cccc3c12
- AC50 [1]: 35.5 µM [rising, single point]

Compound: CCc1cccc2c(C(=O)CN3C(=O)NC4(CCc5ccccc54)C3=O)c[nH]c12 (stereo not drawn)
- AC50 [1]: 0.164 µM [falling, full curve, poor fit]

Compound: COc1ccc(NC(=O)C2CCC(CNc3c(N4CCOCC4)c(=O)c3=O)CC2)cc1Cl (stereo not drawn)
- AC50 [1]: 8.91 µM [rising, partial curve]

Compound: c1ccc(CN2CCC3(CC2)Nc2ccccc2CO3)cc1
- AC50 [1]: 14.6 µM [falling, single point]

Compound: O=C(NCC1CCCCN1)c1cc(OCC(F)(F)F)ccc1OCC(F)(F)F (stereo not drawn)
- AC50 [1]: 20.6 µM [rising, partial curve, poor fit]

Compound: Cc1cccc([C@@H]2[C@@H]3C(=O)N(Cc4ccccc4)C(=O)[C@@H]3[C@]3(C)C(=O)N(c4cccc(Cl)c4)C(=O)N23)c1
- AC50 [1]: 10 µM [falling, partial curve, poor fit]

Compound: CNc1ccccc1C(=O)OC(C)C(=O)Nc1ccc(S(=O)(=O)N2CCCC2)cc1 (stereo not drawn)
- AC50 [1]: 35.5 µM [falling, single point]

Compound: CC(C)c1c(O)nc(SCCN(C)C)[nH]c1=O
- AC50 [1]: 35.5 µM [falling, single point]
